The list shows a part of the results.
Experiments:
Test in all cases: log2 fold change, soluble protein after heating vs DMSO (PISA); higher = thermal stabilisation; K562 lysate, 10 uM; active = over 0.2 and 3.5 SD of the protein, either way, in both replicates (recomputed)
alvocidib = compound: CN1CC[C@H](c2c(O)cc(O)c3c(=O)cc(-c4ccccc4Cl)oc23)[C@H](O)C1 [alvocidib]
Procedure, shortened: (§1)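 The values are log-two fold changes in thermal stability compared with solvent controls and come from duplicates. They were obtained by TMTpro 16plex LC-MS/MS, with channel sums equalised, on the supernatant after 21,000xg for 90 min. That supernatant came from crude K562 extract at 1 mg/mL protein treated with 10 μM compound for 30 min, heated for 3 min across 48°C-58°C, pooled and brought to 0.5% NP-40 at 4°C.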

The chains behind the UniProt entries cited, without tags or fusion partners. Where a name states a change or a piece, a line headed by the entry shows the natural chain unless it says otherwise.
UniProt Q9BT67: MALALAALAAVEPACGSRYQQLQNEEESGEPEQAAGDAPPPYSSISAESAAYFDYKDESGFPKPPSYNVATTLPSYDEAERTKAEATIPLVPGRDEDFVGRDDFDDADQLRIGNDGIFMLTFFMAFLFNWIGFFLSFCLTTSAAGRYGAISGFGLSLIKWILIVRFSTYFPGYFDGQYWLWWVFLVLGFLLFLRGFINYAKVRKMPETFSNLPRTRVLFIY
UniProt Q14934: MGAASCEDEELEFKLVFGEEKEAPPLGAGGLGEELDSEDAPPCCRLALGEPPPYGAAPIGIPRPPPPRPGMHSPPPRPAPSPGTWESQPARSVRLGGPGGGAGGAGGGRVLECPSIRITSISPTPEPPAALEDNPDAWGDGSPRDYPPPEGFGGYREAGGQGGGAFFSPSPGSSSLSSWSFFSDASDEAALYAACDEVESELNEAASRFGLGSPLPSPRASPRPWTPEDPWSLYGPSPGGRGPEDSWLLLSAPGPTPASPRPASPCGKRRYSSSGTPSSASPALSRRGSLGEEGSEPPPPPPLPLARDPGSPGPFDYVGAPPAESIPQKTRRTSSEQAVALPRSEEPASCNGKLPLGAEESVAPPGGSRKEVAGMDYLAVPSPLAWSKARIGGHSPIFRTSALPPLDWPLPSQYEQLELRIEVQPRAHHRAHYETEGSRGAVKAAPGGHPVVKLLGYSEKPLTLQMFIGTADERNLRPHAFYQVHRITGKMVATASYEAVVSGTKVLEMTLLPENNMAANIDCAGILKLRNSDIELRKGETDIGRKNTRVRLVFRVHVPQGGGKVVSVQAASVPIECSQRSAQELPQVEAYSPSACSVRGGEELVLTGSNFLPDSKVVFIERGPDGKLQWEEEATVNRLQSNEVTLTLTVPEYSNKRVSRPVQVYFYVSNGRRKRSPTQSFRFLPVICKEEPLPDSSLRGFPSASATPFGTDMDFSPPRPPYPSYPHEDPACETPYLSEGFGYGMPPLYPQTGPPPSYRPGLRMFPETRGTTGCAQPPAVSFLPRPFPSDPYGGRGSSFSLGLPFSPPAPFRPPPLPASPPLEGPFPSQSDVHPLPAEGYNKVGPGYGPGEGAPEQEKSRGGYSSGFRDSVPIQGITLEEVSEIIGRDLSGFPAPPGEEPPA
UniProt Q16649: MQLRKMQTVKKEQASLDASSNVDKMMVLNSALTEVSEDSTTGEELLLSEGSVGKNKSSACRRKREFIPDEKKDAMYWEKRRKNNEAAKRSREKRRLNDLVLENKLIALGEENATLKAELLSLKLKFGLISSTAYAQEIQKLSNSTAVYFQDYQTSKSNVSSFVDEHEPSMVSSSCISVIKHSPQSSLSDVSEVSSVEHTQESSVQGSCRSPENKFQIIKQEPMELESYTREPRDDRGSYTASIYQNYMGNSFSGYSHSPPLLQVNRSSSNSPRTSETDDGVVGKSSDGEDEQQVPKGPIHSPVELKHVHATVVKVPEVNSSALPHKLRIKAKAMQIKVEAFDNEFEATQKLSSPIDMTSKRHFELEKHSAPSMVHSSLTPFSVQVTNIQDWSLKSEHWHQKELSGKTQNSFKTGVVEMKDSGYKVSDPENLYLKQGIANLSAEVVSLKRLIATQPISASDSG
UniProt O43677, whole entry, looked up: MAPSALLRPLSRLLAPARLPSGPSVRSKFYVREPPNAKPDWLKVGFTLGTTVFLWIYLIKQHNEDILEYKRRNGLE
UniProt Q8NEJ9: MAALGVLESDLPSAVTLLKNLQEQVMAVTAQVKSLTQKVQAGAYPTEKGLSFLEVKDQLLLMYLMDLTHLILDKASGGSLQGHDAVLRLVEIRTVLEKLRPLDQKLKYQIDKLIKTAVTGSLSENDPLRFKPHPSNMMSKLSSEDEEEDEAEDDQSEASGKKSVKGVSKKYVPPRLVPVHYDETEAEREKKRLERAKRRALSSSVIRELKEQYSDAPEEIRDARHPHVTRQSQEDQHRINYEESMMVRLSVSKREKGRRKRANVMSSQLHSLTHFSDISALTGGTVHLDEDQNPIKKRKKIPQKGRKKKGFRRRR
UniProt Q330K2: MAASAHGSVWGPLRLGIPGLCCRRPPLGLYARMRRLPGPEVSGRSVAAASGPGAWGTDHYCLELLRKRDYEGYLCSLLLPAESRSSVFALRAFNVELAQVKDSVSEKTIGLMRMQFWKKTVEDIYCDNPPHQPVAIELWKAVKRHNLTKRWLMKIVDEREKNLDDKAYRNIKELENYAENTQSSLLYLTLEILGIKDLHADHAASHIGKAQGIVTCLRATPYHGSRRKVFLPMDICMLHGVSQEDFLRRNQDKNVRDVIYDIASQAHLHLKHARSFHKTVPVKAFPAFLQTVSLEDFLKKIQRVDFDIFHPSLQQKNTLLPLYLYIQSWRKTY
UniProt Q7RTP0: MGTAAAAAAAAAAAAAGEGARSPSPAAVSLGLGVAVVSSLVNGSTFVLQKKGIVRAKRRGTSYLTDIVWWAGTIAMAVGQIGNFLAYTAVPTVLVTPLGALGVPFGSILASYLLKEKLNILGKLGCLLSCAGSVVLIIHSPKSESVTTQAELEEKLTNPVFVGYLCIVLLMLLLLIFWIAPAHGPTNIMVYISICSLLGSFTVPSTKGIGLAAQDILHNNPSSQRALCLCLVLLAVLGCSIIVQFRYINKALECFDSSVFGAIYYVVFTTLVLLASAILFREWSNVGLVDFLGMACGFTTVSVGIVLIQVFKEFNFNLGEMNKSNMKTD
UniProt P51957: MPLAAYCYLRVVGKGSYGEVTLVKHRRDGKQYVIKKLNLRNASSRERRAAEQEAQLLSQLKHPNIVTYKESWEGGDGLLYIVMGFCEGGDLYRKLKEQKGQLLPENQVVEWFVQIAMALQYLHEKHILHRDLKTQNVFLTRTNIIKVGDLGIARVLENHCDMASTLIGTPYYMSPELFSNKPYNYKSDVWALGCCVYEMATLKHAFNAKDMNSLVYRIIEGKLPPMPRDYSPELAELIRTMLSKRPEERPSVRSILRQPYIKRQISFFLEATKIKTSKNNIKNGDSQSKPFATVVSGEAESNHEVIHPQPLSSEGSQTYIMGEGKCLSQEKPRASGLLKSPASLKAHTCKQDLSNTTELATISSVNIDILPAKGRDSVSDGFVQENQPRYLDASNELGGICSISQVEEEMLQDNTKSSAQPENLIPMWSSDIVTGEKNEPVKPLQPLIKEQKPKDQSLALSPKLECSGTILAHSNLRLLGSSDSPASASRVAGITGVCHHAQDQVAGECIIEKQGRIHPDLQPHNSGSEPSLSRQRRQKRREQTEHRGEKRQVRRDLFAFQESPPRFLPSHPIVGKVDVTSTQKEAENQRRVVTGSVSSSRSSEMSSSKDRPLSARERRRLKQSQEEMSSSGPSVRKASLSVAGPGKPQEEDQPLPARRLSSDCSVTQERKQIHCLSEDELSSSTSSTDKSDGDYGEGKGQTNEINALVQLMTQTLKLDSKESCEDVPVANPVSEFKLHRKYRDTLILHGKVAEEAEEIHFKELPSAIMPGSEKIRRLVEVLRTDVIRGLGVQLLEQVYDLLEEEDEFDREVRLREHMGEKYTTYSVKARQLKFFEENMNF
UniProt Q9UBE8: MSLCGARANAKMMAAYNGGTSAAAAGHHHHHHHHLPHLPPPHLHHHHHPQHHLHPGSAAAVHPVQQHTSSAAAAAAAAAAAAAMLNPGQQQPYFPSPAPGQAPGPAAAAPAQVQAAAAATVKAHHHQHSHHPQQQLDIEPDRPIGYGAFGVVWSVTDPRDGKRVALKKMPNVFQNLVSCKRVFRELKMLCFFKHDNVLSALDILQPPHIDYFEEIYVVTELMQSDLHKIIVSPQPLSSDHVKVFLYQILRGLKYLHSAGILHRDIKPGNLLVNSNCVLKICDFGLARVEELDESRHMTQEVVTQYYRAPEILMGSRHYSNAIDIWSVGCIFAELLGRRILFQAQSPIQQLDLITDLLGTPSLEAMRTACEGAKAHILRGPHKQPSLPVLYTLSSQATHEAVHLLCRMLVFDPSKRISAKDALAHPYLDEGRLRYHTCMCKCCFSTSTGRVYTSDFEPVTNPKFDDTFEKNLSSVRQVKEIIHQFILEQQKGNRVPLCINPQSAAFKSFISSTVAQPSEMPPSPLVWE
UniProt Q9C000: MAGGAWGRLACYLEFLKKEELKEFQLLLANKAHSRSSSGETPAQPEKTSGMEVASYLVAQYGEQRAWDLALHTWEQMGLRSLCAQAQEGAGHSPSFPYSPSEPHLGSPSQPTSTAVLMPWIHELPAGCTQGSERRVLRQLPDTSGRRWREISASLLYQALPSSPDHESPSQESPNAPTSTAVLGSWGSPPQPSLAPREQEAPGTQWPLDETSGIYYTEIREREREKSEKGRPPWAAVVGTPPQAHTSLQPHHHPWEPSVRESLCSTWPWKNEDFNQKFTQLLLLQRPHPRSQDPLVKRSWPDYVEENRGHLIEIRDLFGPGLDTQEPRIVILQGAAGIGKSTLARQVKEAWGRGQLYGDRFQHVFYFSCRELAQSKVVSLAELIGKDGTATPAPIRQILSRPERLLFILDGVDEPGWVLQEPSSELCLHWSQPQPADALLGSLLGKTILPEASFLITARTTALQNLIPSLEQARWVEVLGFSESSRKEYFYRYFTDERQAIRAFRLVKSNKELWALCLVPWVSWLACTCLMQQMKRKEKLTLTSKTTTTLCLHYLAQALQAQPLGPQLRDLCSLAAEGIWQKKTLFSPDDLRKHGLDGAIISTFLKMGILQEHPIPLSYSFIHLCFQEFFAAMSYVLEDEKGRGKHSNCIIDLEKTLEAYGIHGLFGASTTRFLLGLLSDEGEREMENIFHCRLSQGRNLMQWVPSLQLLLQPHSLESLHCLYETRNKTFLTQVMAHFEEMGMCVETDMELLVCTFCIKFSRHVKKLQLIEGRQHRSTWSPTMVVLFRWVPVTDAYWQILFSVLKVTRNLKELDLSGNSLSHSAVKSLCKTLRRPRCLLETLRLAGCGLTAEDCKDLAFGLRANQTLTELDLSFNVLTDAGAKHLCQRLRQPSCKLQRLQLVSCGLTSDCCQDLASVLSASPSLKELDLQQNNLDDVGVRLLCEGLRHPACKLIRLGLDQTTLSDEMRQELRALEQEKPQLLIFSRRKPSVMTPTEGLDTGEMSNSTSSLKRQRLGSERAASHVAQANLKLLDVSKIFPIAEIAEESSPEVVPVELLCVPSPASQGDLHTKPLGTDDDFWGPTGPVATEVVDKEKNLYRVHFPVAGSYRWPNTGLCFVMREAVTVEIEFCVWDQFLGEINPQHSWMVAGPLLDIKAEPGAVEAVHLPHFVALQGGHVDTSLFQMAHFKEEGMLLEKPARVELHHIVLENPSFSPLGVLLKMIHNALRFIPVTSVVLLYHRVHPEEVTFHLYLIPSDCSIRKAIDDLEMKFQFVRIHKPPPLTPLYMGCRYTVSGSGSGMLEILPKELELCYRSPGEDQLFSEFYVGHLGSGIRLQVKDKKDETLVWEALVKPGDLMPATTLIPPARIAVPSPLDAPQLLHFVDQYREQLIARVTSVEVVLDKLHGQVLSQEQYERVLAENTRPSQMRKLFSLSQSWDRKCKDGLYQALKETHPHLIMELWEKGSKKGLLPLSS
UniProt Q7RTR2: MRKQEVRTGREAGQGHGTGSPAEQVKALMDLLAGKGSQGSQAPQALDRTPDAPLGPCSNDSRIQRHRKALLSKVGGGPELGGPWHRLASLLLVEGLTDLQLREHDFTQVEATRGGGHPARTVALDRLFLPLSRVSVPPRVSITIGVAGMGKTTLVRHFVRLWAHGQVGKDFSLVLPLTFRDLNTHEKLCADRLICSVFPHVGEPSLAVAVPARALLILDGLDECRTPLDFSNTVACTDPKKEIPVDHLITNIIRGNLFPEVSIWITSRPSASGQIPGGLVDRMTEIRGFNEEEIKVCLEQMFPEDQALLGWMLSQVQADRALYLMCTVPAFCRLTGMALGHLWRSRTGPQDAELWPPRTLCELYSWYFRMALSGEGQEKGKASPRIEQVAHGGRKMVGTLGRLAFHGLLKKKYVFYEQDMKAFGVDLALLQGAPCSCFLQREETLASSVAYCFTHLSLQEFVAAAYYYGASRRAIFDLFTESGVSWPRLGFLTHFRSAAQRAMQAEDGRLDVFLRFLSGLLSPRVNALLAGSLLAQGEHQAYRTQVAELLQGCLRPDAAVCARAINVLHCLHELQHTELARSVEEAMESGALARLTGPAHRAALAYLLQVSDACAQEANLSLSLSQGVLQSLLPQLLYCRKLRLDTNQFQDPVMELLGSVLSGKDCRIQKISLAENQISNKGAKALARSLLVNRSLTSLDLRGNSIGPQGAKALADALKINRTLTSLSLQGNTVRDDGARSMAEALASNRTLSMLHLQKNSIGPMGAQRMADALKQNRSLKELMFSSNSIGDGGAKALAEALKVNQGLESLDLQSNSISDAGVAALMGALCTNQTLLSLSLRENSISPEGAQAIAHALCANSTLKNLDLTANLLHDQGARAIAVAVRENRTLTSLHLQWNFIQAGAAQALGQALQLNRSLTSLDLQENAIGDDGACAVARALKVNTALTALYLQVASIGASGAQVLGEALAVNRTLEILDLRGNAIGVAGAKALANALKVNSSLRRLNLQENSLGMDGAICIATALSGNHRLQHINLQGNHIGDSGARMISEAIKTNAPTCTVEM

[1] = compound: CNC(=O)C1=CC=CC=C1NC2=NC(=NC=C2Cl)NC3=C(C=C(C=C3)N4CCOCC4)OC
Procedure, shortened: as §1

encorafenib = compound: COC(=O)N[C@@H](C)CNc1nccc(-c2cn(C(C)C)nc2-c2cc(Cl)cc(NS(C)(=O)=O)c2F)n1 [encorafenib]
Procedure, shortened: as §1

[2] = compound: COC(=O)[C@H](CCSC)NC(=O)C1=C(C=C(C=C1)NC[C@H](CS)N)C2=CC=CC=C2
Procedure, shortened: as §1

alisertib = compound: COc1cc(Nc2ncc3c(n2)-c2ccc(Cl)cc2C(c2c(F)cccc2OC)=NC3)ccc1C(=O)O [alisertib]
Procedure, shortened: as §1

[3] = compound: COc1cc2nc(-c3cc(F)ccc3O)nc(N[C@@H]3CNC[C@H]3C(C)(C)O)c2cc1OC
Procedure, shortened: as §1

gefitinib = compound: COc1cc2ncnc(Nc3ccc(F)c(Cl)c3)c2cc1OCCCN1CCOCC1 [gefitinib]
Procedure, shortened: as §1

Tubastatin A = compound: CN1CCc2c(c3ccccc3n2Cc2ccc(C(=O)NO)cc2)C1 [Tubastatin A]
Procedure, shortened: as §1

defactinib = compound: CNC(=O)c1ccc(Nc2ncc(C(F)(F)F)c(NCc3nccnc3N(C)S(C)(=O)=O)n2)cc1 [defactinib]
Procedure, shortened: as §1

[4] = compound: CNc1nc(-c2ccc3c(N)n[nH]c3c2)cc(N2C[C@@H](C(=O)NC3CCCCC3)CC[C@H]2C)n1
Procedure, shortened: as §1

Measured: log2 fold change

NFRKB isoform 2 (UniProt Q6P4R8)
inactive: alvocidib -0.048 | [1] 0.003 | encorafenib -0.076 | [2] -0.095 | alisertib 0.003 | [3] -0.219 | gefitinib -0.143

NFIX (UniProt Q14938)
inactive: encorafenib 0.065 | [2] -0.272

NFE2L1 (UniProt Q14494)
inactive: alvocidib -0.014 | Tubastatin A 0.007 | [1] -0.106 | defactinib 0.025 | encorafenib 0.026 | [2] 0.096

NDST1 (UniProt P52848)
inactive: Tubastatin A 0.073 | [1] -0.003 | defactinib 0.176 | [4] 0.008 | encorafenib 0.074 | [2] -0.033 | alisertib 0.028 | [3] -0.022 | gefitinib -0.051

NKAPD1 isoform 2 (UniProt Q6ZUT1)
inactive: [1] 0.021 | alisertib -0.051 | gefitinib -0.187

NFYC isoform 3 (UniProt Q13952)
inactive: [1] -0.145 | [4] -0.064

NDFIP1 (UniProt Q9BT67)
inactive: alvocidib -0.084 | Tubastatin A -0.022 | [1] 0.045 | defactinib 0.07 | [4] 0.089 | alisertib -0.032 | [3] -0.116 | gefitinib -0.004

NKIRAS1 (UniProt Q9NYS0)
inactive: alvocidib -0.199 | [1] 0.169 | defactinib -0.173 | [4] 0.232 | encorafenib 0.128 | [2] 0.115 | alisertib -0.245 | [3] 0.033 | gefitinib -0.063

NKX2-2 (UniProt O95096)
inactive: alvocidib -0.248 | Tubastatin A 0.152 | [1] -0.095 | defactinib -0.088 | encorafenib -0.098 | [2] 0.067 | [3] 0.133

NET1 (UniProt Q7Z628)
inactive: Tubastatin A -0.104 | [1] 0.047 | defactinib -0.13 | alisertib -0.015 | gefitinib 0.082

NEURL4 (UniProt Q96JN8)
inactive: alvocidib 0.006 | [1] -0.026 | defactinib -0.091 | [4] -0.083 | encorafenib 0.009 | [2] 0.138 | [3] -0.055

NLRX1 (UniProt Q86UT6)
inactive: alvocidib -0.12 | [1] -0.143 | defactinib 0.125 | encorafenib 0.107 | [2] 0.065

NFATC4 isoform 2 (UniProt Q14934)
inactive: alvocidib -0.062 | defactinib -0.12 | [4] 0.023 | encorafenib 0.011 | [2] -0.032 | alisertib 0.048 | [3] 0.244 | gefitinib 0.132

NFIL3 (UniProt Q16649)
inactive: Tubastatin A -0.096 | encorafenib -0.302 | [2] 0.17 | alisertib 0.068 | [3] 0.676 | gefitinib 0.047

NDUFC1 (UniProt O43677)
inactive: Tubastatin A 0.088 | [1] -0.043 | [4] 0.103 | encorafenib 0.024 | [2] -0.03

NDRG1 (UniProt Q92597)
inactive: alvocidib -0.096 | Tubastatin A -0.067 | [1] -0.033 | defactinib 0.102 | [4] -0.037 | [3] -0.077

NDRG2 (UniProt G3V2A6)
inactive: alisertib -0.145 | [3] -0.001 | gefitinib -0.188

NGDN (UniProt Q8NEJ9)
inactive: Tubastatin A -0.042 | [1] 0.125 | encorafenib 0.253 | [2] 0.149 | alisertib 0.157 | [3] 0.089 | gefitinib 0.067

NDUFAF6 (UniProt Q330K2)
inactive: alvocidib 0.021 | Tubastatin A -0.202 | [1] 0.065 | [4] -0.102 | encorafenib 0.035 | [2] 0.031 | alisertib -0.01 | [3] -0.174 | gefitinib -0.14

NEK8 (UniProt Q86SG6)
inactive: alvocidib -0.043 | Tubastatin A 0.036 | [1] 0.097 | defactinib 0.01 | alisertib -0.222 | gefitinib -0.048

NDFIP2 (UniProt Q9NV92)
inactive: alvocidib 0.069 | Tubastatin A -0.069 | alisertib -0.149 | gefitinib -0.201

NIPA1 (UniProt Q7RTP0)
inactive: alvocidib -0.122 | Tubastatin A -0.144 | [1] 0.023 | defactinib 0.293 | alisertib 0.103 | [3] 0.02 | gefitinib 0.048

NIPSNAP3B (UniProt Q9BS92)
inactive: alvocidib -0.055 | Tubastatin A -0.04 | [1] -0.012 | defactinib -0.035 | encorafenib 0 | [2] 0.061 | alisertib 0.064 | [3] 0.015 | gefitinib -0.208

NDUFB1 (UniProt O75438)
inactive: alvocidib 0.249 | Tubastatin A -0.098 | [1] 0.025 | defactinib 0.115 | [4] 0.054 | alisertib -0.06 | gefitinib -0.14

NEK4 (UniProt P51957)
inactive: defactinib 0.035

NIN isoform 7 (UniProt Q8N4C6)
inactive: alvocidib 0.046 | Tubastatin A 0.016 | [1] -0.008 | [3] 0.193

NEK5 (UniProt Q6P3R8)
inactive: alvocidib 0.075 | Tubastatin A 0.071 | defactinib 0.026 | [4] -0.138 | encorafenib 0 | [2] -0.006 | alisertib 0.257 | [3] -0.05 | gefitinib 0.094

3 records picked at random from those above:
NFIX (UniProt Q14938)
inactive: encorafenib 0.065 | [2] -0.272

NET1 (UniProt Q7Z628)
inactive: Tubastatin A -0.104 | [1] 0.047 | defactinib -0.13 | alisertib -0.015 | gefitinib 0.082

NEURL4 (UniProt Q96JN8)
inactive: alvocidib 0.006 | [1] -0.026 | defactinib -0.091 | [4] -0.083 | encorafenib 0.009 | [2] 0.138 | [3] -0.055

Continuation:

NLK (UniProt Q9UBE8)
inactive: alvocidib -0.054 | [1] 0.067 | defactinib -0.178

NFIA isoform 4 (UniProt Q12857)
inactive: alvocidib -0.042 | Tubastatin A -0.049 | [1] 0.007 | defactinib 0.002 | [4] 0.09 | alisertib -0.01 | [3] -0.012 | gefitinib 0.103

NLRP1 (UniProt Q9C000)
inactive: Tubastatin A 0.218 | [1] 0 | [4] 0.05 | encorafenib 1.12 | [2] -0.038

NLRC3 isoform 2 (UniProt Q7RTR2)
inactive: Tubastatin A 0.028 | [1] 0.023 | defactinib -0.146 | [4] -0.126 | encorafenib 0.063 | [2] -0.007 | alisertib 0.107 | [3] -0.032 | gefitinib 0.164

NEPRO (UniProt Q6NW34)
inactive: alvocidib 0.005 | Tubastatin A -0.042 | [1] 0.054 | [4] 0.028 | encorafenib 0.145 | [2] 0.075 | alisertib -0.138 | [3] 0.031 | gefitinib -0.107

NEIL2 (UniProt Q969S2)
inactive: [1] 0.107 | alisertib 0.024 | gefitinib 0.04

NFKB1 isoform 2 (UniProt P19838)
inactive: Tubastatin A -0.086 | [1] -0.007 | defactinib -0.004 | [4] -0.011 | encorafenib 0.029 | [2] 0.009 | alisertib 0.011 | [3] 0.001 | gefitinib -0.051

NDRG2 isoform 6 (UniProt Q9UN36)
inactive: Tubastatin A 0.001 | [1] 0.043 | defactinib 0.201 | [4] -0.093 | encorafenib 0.138 | [2] -0.067 | [3] -0.187

NEU4 (UniProt C9JEA3)
inactive: alvocidib -0.022 | Tubastatin A 0.019 | [1] -0.043 | defactinib -0.034 | [4] 0.054 | alisertib 0.028 | gefitinib 0.038

NEU3 isoform 2 (UniProt Q9UQ49)
inactive: Tubastatin A -0.043 | [1] 0.012 | defactinib 0.23 | [4] -0.04 | encorafenib 0.05 | [2] 0.147 | alisertib 0.051 | [3] 0.003 | gefitinib -0.04

NFKBIA (UniProt P25963)
inactive: [1] 0.083 | defactinib -0.394 | [4] 0.017 | alisertib -0.085 | [3] 0.025 | gefitinib 0.228
